The test concerns the target WAVE-DAMPENED2-LIKE7 (WDL7), pGBKT7 fusion (Arabidopsis thaliana) (UniProt Q67Y69). Nature of the test: two-hybrid; pGADT7 and pGBKT7 fusions co-transformed into yeast strain AH109; growth on -Trp/-Leu/-His/-Ade medium, 28 °C, 2-3 days.

Chains of the proteins cited; added tags and fusions are not shown.
UniProt Q67Y69: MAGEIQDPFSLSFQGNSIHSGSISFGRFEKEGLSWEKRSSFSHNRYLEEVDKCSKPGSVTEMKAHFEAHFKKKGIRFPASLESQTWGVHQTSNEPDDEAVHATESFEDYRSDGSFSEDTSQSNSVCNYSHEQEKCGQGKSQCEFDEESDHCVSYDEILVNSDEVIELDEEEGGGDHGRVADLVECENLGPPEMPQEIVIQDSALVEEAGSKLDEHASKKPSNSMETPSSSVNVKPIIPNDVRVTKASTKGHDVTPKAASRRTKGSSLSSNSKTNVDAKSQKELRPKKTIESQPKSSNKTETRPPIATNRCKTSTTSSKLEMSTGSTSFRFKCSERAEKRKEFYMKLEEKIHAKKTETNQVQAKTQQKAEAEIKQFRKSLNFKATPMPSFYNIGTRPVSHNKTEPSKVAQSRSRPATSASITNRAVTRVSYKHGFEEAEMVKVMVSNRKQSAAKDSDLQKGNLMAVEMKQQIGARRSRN

Results on 1 molecule are retold here after publication PMC8041845.

No constants are given. Whether binding was seen depends on the method and setting. Sequences can lack the tags named with a protein.

B1: MBR2, pGADT7 fusion (enzyme, UniProt O49500 1-666)
chain: MQGPRSTGDSSTGINYADGEPICSTNSETTSNNILNPVDVQFPNNTTGSGRPTYASSSSHVVQNHNWWSFGESSSRLGPSDHLNSNGSKTDRQLLSDGYGFEEGQSGMLLPGESFLRGSSSSHMLSHVNLGKDMDIGSGLQTSGVVIRHNNCETSLGSSSQTAEERSSGPGSSLGGLGSSCKRKALEGAPSHSFPGESHGCFFQTENGAWNEGLAQYDASSSLSLSMPSQNSPNVNNQSGLPEPRFGLGGGRAVTASAFPSTRSTETISRPGRRLNPGQPPESVAFSFTQSGSSVRQQQQLPATSPFVDPLDARAIPVTGSSSSGDGQPSMIHLPALTRNIHQFAWSASSSSRANSMPEEGLSPWDAPRINSEQPVFTTPANETRNPVQDQFCWSFTRGNPSTSGDSPFVPRAGSSSGIHGLQPNPTWVTPHNQSRISEVAPWSLFPSIESESATHGASLPLLPTGPSVSSNEAAAPSGSSSRSHRSRQRRSGLLLERQNDHLHLRHLGRSLAADNDGRNRLISEIRQVLSAMRRGENLRFEDYMVFDPLIYQGMAEMHDRHRDMRLDVDNMSYEELLALGERIGDVSTGLSEEVILKVMKQHKHTSSAAGSHQDMEPCCVCQEEYAEGDDLGTLGCGHEFHTACVKQWLMLKNLCPICKTVALST
Take B1: the binding result is reported as “no binding”.
